Source: article PMC5730846
Results are given in words; binding and its absence hold for the method and conditions named. In cells and extracts the contact can be indirect. A result given as binding can be weak or reduced; the word gives no strength.

Biological target: T1, Tsc1 (hamartin) (human (endogenous in HEK293)) (UniProt Q92574)
T1 sequence: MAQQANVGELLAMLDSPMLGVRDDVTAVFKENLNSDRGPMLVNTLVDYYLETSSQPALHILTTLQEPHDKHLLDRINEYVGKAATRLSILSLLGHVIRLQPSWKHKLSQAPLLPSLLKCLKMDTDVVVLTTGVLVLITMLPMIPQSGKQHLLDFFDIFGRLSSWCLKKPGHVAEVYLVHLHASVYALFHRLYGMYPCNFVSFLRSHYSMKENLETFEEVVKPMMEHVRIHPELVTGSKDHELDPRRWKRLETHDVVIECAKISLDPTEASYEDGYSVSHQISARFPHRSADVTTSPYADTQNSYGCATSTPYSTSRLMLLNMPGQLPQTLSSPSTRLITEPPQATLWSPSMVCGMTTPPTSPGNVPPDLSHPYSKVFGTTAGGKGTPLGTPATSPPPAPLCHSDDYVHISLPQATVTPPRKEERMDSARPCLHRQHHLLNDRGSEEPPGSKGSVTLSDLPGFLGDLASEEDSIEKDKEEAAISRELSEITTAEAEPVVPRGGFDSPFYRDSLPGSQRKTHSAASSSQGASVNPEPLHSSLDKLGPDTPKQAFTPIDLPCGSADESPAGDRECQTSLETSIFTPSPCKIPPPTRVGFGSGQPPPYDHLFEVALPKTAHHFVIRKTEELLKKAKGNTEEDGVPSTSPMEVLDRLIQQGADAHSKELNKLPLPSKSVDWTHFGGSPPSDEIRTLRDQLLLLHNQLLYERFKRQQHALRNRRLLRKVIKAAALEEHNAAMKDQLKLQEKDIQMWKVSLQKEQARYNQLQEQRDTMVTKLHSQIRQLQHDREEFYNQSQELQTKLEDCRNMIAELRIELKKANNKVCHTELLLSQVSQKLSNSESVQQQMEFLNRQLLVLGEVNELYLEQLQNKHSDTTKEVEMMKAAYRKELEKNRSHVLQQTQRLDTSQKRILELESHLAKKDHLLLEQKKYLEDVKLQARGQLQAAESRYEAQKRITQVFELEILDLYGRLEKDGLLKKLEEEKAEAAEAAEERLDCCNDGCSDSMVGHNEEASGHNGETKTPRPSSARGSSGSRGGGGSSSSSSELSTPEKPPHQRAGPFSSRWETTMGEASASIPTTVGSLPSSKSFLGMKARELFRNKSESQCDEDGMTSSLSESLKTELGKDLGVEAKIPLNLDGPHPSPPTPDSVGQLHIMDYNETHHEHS
Test: co-IP; endogenous Tsc1 immunoprecipitated from HEK293 lysate with anti-Tsc1 antibody (IgG control); immunoblot

Row | Substance | binding
1 | Akt (human (endogenous in HEK293)) | binds
2 | Hsp70 (human (endogenous in HEK293)) | binds
